Data taken from article PMC4654474.
Results are given in words; binding and its absence hold for the method and conditions named. In cells and extracts the contact can be indirect. Some results given as binding are weak or reduced against the parent protein; the word gives no strength.

The chains behind the UniProt entries cited, without tags or fusion partners. Residues count along the entry.
UniProt Q00960, residues 27-1482: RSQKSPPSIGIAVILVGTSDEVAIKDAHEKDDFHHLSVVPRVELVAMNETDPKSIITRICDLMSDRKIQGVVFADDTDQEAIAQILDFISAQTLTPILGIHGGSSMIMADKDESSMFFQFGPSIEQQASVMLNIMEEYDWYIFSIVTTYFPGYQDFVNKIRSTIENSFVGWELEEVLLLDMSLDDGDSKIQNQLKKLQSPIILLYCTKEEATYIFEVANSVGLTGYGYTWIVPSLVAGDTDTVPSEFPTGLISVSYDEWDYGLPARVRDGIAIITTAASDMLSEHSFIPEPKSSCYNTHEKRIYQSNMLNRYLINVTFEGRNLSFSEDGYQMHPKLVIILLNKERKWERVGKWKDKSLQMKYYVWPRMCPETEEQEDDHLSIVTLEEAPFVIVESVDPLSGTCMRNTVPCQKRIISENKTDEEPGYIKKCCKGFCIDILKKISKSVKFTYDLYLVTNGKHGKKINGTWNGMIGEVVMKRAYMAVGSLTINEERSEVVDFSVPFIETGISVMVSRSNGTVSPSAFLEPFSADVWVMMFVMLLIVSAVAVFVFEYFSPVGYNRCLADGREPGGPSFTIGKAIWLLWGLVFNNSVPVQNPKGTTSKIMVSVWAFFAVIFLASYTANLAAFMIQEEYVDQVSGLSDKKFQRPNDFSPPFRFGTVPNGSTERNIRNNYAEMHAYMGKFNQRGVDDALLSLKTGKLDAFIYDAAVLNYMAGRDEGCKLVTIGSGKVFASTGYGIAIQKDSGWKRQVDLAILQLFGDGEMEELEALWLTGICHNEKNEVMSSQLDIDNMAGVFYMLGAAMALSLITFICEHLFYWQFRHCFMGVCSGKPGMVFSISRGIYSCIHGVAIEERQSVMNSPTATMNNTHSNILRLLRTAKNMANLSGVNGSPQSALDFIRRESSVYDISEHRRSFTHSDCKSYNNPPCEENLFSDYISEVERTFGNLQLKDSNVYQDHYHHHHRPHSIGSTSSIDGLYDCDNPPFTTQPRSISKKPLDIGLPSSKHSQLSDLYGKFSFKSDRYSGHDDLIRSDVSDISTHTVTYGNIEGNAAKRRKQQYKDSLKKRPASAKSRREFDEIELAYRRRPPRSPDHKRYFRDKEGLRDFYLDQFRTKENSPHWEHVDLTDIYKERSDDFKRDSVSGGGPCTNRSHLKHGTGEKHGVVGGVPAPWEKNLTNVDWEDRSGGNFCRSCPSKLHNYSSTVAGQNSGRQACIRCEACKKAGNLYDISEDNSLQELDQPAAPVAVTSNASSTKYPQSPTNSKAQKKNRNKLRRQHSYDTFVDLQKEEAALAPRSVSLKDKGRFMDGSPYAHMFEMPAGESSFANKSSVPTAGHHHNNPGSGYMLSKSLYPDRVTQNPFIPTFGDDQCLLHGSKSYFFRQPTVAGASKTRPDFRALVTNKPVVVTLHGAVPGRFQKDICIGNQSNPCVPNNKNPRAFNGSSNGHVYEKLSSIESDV
UniProt Q8CFN2: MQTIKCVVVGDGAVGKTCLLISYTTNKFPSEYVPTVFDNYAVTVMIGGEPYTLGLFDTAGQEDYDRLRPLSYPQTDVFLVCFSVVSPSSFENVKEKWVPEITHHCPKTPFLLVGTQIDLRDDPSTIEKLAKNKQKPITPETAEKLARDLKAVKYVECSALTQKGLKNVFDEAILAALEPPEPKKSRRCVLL
UniProt Q01097, residues 27-1482: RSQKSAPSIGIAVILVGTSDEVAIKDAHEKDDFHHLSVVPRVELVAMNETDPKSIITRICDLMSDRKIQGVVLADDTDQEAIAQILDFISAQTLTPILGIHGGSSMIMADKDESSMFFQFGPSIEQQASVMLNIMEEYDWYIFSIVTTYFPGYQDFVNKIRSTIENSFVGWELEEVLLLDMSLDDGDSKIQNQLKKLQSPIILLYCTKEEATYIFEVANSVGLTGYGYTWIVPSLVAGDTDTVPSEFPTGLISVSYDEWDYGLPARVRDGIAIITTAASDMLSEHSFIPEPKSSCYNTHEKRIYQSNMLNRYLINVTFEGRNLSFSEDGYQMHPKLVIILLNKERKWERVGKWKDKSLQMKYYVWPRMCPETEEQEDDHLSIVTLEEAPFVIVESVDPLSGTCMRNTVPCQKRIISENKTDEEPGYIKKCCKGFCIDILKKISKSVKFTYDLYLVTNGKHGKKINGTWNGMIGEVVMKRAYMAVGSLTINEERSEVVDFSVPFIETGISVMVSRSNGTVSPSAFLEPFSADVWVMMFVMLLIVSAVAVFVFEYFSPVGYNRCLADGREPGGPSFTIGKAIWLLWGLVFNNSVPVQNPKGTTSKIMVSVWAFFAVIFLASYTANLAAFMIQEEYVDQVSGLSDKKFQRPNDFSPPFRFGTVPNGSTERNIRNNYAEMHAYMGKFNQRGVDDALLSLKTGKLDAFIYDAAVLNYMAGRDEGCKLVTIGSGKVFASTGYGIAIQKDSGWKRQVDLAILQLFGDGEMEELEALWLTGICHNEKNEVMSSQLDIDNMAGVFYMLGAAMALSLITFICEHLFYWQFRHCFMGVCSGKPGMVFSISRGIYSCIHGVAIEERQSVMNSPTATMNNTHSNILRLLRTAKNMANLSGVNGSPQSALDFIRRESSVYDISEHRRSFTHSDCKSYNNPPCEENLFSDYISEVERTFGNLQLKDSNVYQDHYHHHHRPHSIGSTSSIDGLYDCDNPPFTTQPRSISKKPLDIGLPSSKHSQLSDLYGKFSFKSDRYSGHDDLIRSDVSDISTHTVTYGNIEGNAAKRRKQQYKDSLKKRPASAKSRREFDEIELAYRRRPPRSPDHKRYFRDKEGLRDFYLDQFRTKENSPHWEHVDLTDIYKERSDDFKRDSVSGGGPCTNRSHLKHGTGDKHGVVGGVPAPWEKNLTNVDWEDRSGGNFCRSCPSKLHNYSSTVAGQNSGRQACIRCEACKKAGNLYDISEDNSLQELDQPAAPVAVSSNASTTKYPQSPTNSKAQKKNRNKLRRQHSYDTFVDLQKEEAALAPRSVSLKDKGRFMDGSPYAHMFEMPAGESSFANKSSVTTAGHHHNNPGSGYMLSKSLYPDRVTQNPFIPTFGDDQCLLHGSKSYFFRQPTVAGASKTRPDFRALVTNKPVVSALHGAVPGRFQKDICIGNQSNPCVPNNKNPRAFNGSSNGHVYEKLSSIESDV
UniProt Q9JM13: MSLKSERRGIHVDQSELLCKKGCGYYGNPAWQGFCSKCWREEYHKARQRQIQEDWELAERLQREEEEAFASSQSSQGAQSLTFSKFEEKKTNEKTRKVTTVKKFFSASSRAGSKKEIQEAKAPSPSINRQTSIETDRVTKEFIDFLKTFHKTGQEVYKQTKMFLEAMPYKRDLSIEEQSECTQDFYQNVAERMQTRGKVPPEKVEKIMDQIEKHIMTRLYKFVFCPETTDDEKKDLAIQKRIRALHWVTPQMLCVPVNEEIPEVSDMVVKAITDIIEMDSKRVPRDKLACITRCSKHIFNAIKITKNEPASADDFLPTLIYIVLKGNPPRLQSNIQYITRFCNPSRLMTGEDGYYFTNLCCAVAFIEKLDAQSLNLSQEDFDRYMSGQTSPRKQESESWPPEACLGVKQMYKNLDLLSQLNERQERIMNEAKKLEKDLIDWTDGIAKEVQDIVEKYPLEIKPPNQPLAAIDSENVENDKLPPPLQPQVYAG
UniProt A0A8I6ABA8: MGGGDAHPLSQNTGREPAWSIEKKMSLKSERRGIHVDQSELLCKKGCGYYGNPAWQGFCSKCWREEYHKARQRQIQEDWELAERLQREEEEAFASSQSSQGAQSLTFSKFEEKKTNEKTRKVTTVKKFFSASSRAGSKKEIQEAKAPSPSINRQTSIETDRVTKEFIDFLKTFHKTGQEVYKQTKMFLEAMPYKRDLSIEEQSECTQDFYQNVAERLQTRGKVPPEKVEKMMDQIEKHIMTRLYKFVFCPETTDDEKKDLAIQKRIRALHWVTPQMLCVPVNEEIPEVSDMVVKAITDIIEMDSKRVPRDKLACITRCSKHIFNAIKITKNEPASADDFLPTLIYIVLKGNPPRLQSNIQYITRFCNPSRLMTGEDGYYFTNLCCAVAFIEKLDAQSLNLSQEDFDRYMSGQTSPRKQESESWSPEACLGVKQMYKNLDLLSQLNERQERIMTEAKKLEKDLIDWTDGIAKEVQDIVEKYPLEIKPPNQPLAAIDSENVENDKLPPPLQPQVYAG

Legend:
[1] = target: NMDA receptor NR2B subunit (rat, endogenous in PC12 cells) (rat (endogenous in PC12)) (UniProt Q00960); test: co-IP; PC12 cell lysates (0.5% Triton-X in PSB), NGF for 0, 0.5 or 1.0 hour; immunoprecipitation with anti-RabGEF1 or anti-NR2B antibody, Protein A/G agarose, Western blot; rabbit IgG as negative control
[2] = target: Cdc42 (active, GTP-bound; endogenous in PC12 cells) (rat (endogenous in PC12)) (UniProt Q8CFN2); test: pull-down; RabGEF1 found together with the active GTP-bound GTPase that was affinity-precipitated from PC12 lysates (NGF 0 or 15 min) by GST-Raf1-RBD, GST-Pak1-PBD or GST-Rhotekin-RBD; Western blot with anti-RabGEF1
[3] = target: RabGEF1 (rat, endogenous in PC12 cells) (rat (endogenous in PC12)); test: co-IP; PC12 cell lysates (0.5% Triton-X in PSB), NGF for 0, 0.5 or 1.0 hour; immunoprecipitation with anti-RabGEF1 or anti-NR2B antibody, Protein A/G agarose, Western blot; rabbit IgG as negative control
[4] = target: NMDA receptor NR2B subunit (mouse, endogenous in hippocampus) (mouse (endogenous in hippocampus)) (UniProt Q01097); test: co-IP; mouse hippocampus lysate; immunoprecipitation with anti-NR2B or anti-RabGEF1 antibody, immunoblot with anti-RabGEF1 or anti-NR2B; rabbit IgG as negative control
[5] = target: RabGEF1 (mouse, endogenous in hippocampus) (mouse (endogenous in hippocampus)) (UniProt Q9JM13); test: as above

RabGEF1 (rat, endogenous in PC12 cells) (from UniProt A0A8I6ABA8 1-515)
binding [1]: binds | binding [2]: binds

NMDA receptor NR2B subunit (rat, endogenous in PC12 cells) (from UniProt Q00960 27-1482)
binding [3]: binds

RabGEF1 (mouse, endogenous in hippocampus) (from UniProt Q9JM13 1-491)
binding [4]: binds

NMDA receptor NR2B subunit (mouse, endogenous in hippocampus) (from UniProt Q01097 27-1482)
binding [5]: binds
